The values below come from patent US20250073245A1, “COMPOSITION AND METHOD OF TREATING HYPOGONADISM IN MEN” (priority 2023, published 2025).

For this data set, the system named is hypogonadism in men. The data set can be described thus: Study of testosterone cypionate injections every 7 days (with anastrozole) in men, followed by blood work until stabilization. The format is in vivo, human. From the text:
Patient hemoglobin and total testosterone (TT) levels were used in this Study to determine when a patient becomes “stable” on treatment. The terms “stable”, “stability”, “stabilized” and “stabilization” are defined in this Study as “the point at which a patient's symptoms have resolved, polycythemia has stopped, and TC dosage has remained consistent for at least 3 months.” Polycythemia associated with testosterone replacement therapy (TRT) has commonly been controlled through frequent patient blood donation. […] Several TT “normal” ranges can be found in the literature. For example, the Endocrine Society identifies the normal range for TT levels in males to be 264-916 ng/dL (1,17). However, LabCorp Diagnostics has used the previously accepted “normal” range of 348-1197 ng/dL until 2017 and Quest Diagnostics uses a reference range of 250-1110 ng/dL.
Patients' responses to TC injections administered every 7 days were tracked and the resulting effects of TC dosing on cholesterol, A1c, and PSA levels were documented once stable TT levels were reached.
Subjects: Two cohorts were studied. The two cohorts studied were males that had previously been on TRT and males who had never been on any form of TRT. […]

In the case of `C[C@]12CC[C@H]3[C@@H](CCC4=CC(=O)CC[C@@]43C)[C@@H]1CC[C@@H]2OC(=O)CCC1CCCC1` [TC, testosterone cypionate], the “patients able to reach stabilization of treatment without taking any anastrozole” value (6 patients of 60) turned out to be 10%. Also, the “patients who needed to take an estrogen blocker (anastrozole) 3 days after their TC dosage” value (all patients treated in the study) is on record as 54 out of 60.
